PubChem BioAssay AID1159578 – Peter MacCallum Cancer Centre, 2015
Screen: 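Genome-wide hunt for genes controlling movement of lymphatic endothelial cells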 (primary screen). Cell system: human lymphatic endothelial cells. Knock-down reagent: siRNA pool against human genes, 40 nM. Duration: 48 h after transfection. Read-out: 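High-content imaging of dye-stained cells in a scratch assay measures filled wound area and nuclei per well; duplicate means given as ratio to mock and robust z-score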. Reading the numbers: migration robust z-score: higher = faster migration into the scratch; migration relative to mock: higher = more scratch area covered than mock; nuclei per well: higher = more cells in the well. Rule for the call: 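Migration changed when robust z exceeds 2 or falls below -2 and mean nuclei number is at least 3300; otherwise not called changed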. Meaning of the calls: active = migration changed; inactive = no migration change, or too few cells.
In all, the deposit lists about 18,000 reagents; shown is a part drawn at random. In the full data, about 1,030 (5.7%) are marked active. 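Inactive calls also include pools with fewer than 3300 nuclei, whose migration was not assessed.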 Raw values are not corrected between plates.

migration robust z-score	migration class with cell-count check	migration relative to mock	nuclei per well, duplicate mean	call	Target gene
0.39	migration z between -2 and 2; enough cells	0.99	6164	inactive	ARHGAP12 (Rho GTPase activating protein 12)
0.9	migration z between -2 and 2; enough cells	1.12	5745	inactive	OR5D18 (olfactory receptor family 5 subfamily D member 18)
0.68	under 3300 nuclei; migration not judged	0.94	2578	inactive	BIRC5 (baculoviral IAP repeat containing 5)
0.12	migration z between -2 and 2; enough cells	0.92	5816	inactive	NAGS (N-acetylglutamate synthase)
-0.64	migration z between -2 and 2; enough cells	0.68	3580	inactive	EFNA4 (ephrin A4)
-0.15	migration z between -2 and 2; enough cells	0.85	4813	inactive	DPY19L4 (dpy-19 like 4)
0.37	migration z between -2 and 2; enough cells	0.98	6442	inactive	PRR13 (proline rich 13)
-1.16	migration z between -2 and 2; enough cells	0.58	6258	inactive	TMEM101 (transmembrane protein 101)
0.62	migration z between -2 and 2; enough cells	0.92	6584	inactive	KDM5C (lysine demethylase 5C)
-0.97	migration z between -2 and 2; enough cells	0.64	6626	inactive	ZNF571 (zinc finger protein 571)
0.76	migration z between -2 and 2; enough cells	1.08	5719	inactive	PCTP (phosphatidylcholine transfer protein)
0.84	migration z between -2 and 2; enough cells	1.1	5764	inactive	TMEM52 (transmembrane protein 52)
0.21	migration z between -2 and 2; enough cells	0.84	5539	inactive	CMA1 (chymase 1)
1.56	migration z between -2 and 2; enough cells	1.1	5999	inactive	SCARF2 (scavenger receptor class F member 2)
-0.9	migration z between -2 and 2; enough cells	0.63	5060	inactive	CASP10 (caspase 10)
-1.17	migration z between -2 and 2; enough cells	0.58	6101	inactive	TKTL2 (transketolase like 2)
-3.17	migration z below -2; enough cells	0.06	5868	active	U2AF1L4 (U2 small nuclear RNA auxiliary factor 1 like 4)
0.1	migration z between -2 and 2; enough cells	0.91	6150	inactive	ARL8A (ARF like GTPase 8A)
1.21	migration z between -2 and 2; enough cells	1.19	7110	inactive	CSNK1G2-AS1 (CSNK1G2 antisense RNA 1)
1.01	migration z between -2 and 2; enough cells	1	5037	inactive	GABRR3 (gamma-aminobutyric acid type A receptor subunit rho3)
1.9	migration z between -2 and 2; enough cells	1.38	7192	inactive	MS4A3 (membrane spanning 4-domains A3)
-0.26	migration z between -2 and 2; enough cells	0.76	5144	inactive	DTX4 (deltex E3 ubiquitin ligase 4)
0.94	migration z between -2 and 2; enough cells	1.13	5648	inactive	TNNI1 (troponin I1, slow skeletal type)
